Results reported in publication PMC11786360.
Results are given in words; binding and its absence hold for the method and conditions named. In cells and extracts the contact can be indirect. Some binding calls cover weakened binding; strength is not graded here. For some assays here: Tags and fused reporters may be left off the sequences shown.

Protein sequences, listed by entry. Tags and fused reporters are not part of them.
UniProt P45974: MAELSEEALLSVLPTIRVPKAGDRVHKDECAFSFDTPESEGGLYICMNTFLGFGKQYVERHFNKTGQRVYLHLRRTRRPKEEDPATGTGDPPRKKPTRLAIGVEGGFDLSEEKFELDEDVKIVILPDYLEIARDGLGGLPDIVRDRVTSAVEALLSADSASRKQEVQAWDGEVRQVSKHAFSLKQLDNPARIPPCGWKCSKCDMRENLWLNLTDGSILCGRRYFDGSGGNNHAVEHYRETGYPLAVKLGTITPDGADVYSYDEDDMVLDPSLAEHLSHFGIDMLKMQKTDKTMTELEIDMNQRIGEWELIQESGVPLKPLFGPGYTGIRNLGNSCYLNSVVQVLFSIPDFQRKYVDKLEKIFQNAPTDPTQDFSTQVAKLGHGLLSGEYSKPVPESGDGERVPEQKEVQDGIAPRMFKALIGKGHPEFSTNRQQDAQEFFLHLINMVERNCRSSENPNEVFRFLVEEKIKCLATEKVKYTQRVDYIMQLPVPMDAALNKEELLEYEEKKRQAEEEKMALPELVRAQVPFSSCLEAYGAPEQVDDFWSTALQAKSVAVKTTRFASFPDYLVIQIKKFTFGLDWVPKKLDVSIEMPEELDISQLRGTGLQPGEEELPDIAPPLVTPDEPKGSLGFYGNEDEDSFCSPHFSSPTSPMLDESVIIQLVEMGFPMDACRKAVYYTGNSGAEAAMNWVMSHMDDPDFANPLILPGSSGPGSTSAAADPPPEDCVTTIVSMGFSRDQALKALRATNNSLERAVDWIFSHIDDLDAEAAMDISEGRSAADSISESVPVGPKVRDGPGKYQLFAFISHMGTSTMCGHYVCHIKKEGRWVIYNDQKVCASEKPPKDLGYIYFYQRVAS

Legend:
His-LRP11 = biological target: T1, His-LRP11 (UniProt Q86VZ4); experiment: co-IP; exogenous proteins, HEK293T cells transfected with His-LRP11, Flag-RACK1 and HA-USP5, RIPA lysis buffer; tag antibodies or IgG 4 °C 24 h, protein A and G agarose beads, five washes with PBS, Western blot
T1 sequence: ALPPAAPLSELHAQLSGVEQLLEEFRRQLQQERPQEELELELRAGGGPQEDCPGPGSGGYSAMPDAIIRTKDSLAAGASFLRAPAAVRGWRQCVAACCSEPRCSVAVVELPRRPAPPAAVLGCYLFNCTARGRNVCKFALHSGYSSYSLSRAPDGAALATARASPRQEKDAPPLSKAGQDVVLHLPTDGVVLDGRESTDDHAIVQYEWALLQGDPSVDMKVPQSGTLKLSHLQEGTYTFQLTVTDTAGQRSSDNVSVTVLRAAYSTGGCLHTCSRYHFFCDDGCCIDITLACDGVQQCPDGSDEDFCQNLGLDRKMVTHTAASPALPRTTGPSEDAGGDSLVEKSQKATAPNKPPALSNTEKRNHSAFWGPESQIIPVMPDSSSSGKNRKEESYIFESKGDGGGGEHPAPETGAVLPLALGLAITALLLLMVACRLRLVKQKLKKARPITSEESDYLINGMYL

[1] = biological target: T2, low-density lipoprotein receptor-related protein 11 (LRP11), endogenous (human (endogenous in Hep3B)) (UniProt Q86VZ4); experiment: co-IP; endogenous proteins, Hep3B cells in RIPA lysis buffer; primary antibody or IgG 4 °C 24 h, protein A and G agarose beads 3 h, five washes with PBS, Western blot; USP5-RACK1 also tested in LRP11 knock-down and LRP11-overexpressing cells
T2 sequence: T1 sequence

| binding (His-LRP11) | binding [1] | Substance |
| --- | --- | --- |
| binds | – | HA-USP5 (from UniProt P45974 1-858) (enzyme) |
| – | binds | Ubiquitin specific peptidase 5 (USP5), endogenous (from UniProt P45974 1-858) (enzyme) |
